Read-outs that look alike come from different tables or passages of the source. No constants are given. Whether binding was seen depends on the method and setting. In cells and extracts the contact can be indirect. Here binding means that the protein was enriched with, or labelled near, the bait; the list need not be complete.

Protein sequences, listed by entry. Tags and fused reporters are not part of them.
UniProt P08238: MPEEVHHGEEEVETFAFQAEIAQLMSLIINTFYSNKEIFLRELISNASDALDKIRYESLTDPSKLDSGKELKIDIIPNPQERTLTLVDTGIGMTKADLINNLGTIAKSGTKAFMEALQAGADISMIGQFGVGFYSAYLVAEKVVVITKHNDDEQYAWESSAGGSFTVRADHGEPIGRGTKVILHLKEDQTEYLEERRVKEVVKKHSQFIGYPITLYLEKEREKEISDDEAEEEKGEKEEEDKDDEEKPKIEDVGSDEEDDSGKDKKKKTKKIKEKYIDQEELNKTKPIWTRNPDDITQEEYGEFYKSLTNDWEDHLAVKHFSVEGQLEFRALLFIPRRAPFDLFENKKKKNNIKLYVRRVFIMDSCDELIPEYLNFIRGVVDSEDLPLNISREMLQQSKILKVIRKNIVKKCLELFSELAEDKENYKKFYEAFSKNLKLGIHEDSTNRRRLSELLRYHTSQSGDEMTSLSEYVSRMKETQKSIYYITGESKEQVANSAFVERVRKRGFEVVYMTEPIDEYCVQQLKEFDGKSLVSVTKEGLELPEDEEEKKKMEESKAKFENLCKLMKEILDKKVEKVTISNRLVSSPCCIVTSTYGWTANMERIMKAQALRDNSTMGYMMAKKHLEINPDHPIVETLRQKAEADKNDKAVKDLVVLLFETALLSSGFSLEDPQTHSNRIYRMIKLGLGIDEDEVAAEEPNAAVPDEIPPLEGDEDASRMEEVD
UniProt Q9UDY2: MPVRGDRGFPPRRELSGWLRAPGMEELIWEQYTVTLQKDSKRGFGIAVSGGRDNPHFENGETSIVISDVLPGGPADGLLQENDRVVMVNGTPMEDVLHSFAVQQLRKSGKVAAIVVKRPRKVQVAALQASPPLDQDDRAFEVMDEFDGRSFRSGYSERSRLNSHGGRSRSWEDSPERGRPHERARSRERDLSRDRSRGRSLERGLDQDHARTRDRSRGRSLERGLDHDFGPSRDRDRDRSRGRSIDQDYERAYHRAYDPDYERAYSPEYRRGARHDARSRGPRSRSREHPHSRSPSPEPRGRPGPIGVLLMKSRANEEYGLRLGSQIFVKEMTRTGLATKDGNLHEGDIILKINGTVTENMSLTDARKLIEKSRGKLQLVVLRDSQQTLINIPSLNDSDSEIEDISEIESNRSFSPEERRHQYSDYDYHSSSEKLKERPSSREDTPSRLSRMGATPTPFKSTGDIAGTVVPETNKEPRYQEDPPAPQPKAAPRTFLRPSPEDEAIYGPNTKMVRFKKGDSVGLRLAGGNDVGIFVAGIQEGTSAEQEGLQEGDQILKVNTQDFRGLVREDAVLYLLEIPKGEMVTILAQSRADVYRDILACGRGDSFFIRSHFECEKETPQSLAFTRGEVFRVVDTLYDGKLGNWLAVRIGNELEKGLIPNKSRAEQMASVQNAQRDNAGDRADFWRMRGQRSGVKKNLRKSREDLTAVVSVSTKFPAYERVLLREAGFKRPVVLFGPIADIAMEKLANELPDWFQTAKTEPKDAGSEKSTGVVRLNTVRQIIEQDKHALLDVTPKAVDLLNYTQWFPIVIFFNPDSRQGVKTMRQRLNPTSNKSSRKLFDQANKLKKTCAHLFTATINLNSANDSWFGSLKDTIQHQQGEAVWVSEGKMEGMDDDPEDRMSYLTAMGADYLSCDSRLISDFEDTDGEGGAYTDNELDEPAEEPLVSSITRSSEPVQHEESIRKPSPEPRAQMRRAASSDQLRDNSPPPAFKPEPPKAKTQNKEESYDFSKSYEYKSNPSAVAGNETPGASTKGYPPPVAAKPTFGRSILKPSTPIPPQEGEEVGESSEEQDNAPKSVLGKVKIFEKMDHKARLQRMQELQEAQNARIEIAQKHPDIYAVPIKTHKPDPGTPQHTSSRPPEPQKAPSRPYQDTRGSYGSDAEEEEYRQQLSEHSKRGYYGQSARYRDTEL

Assay [1] deals with T1, S100 Calcium Binding Protein A16 (lentivirus-S100A16) (human) (UniProt Q96FQ6).
T1 sequence: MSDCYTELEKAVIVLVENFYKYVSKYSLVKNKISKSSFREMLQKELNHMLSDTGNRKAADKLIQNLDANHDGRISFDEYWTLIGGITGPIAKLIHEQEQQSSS
The experiment in a line: affinity purification with mass spectrometry; precipitated protein of SGC-7901 cells infected with lenti-S100A16 or lenti-scramble (empty vector); LC-MS/MS on LTQ-Orbitrap, MaxQuant.

Assay [2] concerns the target T1, S100 Calcium Binding Protein A16 (lentivirus-S100A16) (human). The description is as above. This is another data set of the same source.

In the case of HSP90AB1 (from UniProt P08238 1-724), the binding entry in assay [1] was “binds”.

Turning to “Zonula Occludens-2 (from UniProt Q9UDY2 1-1190)”, the binding result in assay [1] is listed as “binds”.

B1: JUP (protein, UniProt P14923 1-745)
chain: MEVMNLMEQPIKVTEWQQTYTYDSGIHSGANTCVPSVSSKGIMEEDEACGRQYTLKKTTTYTQGVPPSQGDLEYQMSTTARAKRVREAMCPGVSGEDSSLLLATQVEGQATNLQRLAEPSQLLKSAIVHLINYQDDAELATRALPELTKLLNDEDPVVVTKAAMIVNQLSKKEASRRALMGSPQLVAAVVRTMQNTSDLDTARCTTSILHNLSHHREGLLAIFKSGGIPALVRMLSSPVESVLFYAITTLHNLLLYQEGAKMAVRLADGLQKMVPLLNKNNPKFLAITTDCLQLLAYGNQESKLIILANGGPQALVQIMRNYSYEKLLWTTSRVLKVLSVCPSNKPAIVEAGGMQALGKHLTSNSPRLVQNCLWTLRNLSDVATKQEGLESVLKILVNQLSVDDVNVLTCATGTLSNLTCNNSKNKTLVTQNSGVEALIHAILRAGDKDDITEPAVCALRHLTSRHPEAEMAQNSVRLNYGIPAIVKLLNQPNQWPLVKATIGLIRNLALCPANHAPLQEAAVIPRLVQLLVKAHQDAQRHVAAGTQQPYTDGVRMEEIVEGCTGALHILARDPMNRMEIFRLNTIPLFVQLLYSSVENIQRVAAGVLCELAQDKEAADAIDAEGASAPLMELLHSRNEGTATYAAAVLFRISEDKNPDYRKRVSVELTNSLFKHDPAAWEAAQSMIPINEPYGDDMDATYRPMYSSDVPLDPLEMHMDMDGDYPIDTYSDGLRPPYPTADHMLA
In the case of B1, the binding entry in assay [2] is “binds”.
